From US8722052B2, “Vaccinia virus protein A46 peptide and use thereof” (priority 2008, dated 2014)
Not every detail of the peptide structures is certain; ends, links or a residue may be inferred. Ends that are not written are not given here.

Columns and labels:
[1] = test system: IκBα; assay: LPS-induced IκBα degradation in RAW264.7 cells, immunoblot; type: cell-based, murine; conditions: peptide 4 μM 1 h before 10 ng/ml LPS for 5, 15, 30 or 60 min
Procedure: FIGS. 25A and B are immunoblots showing the effect of A464 on LPS-induced IκBα degradation in murine RAW264.7 cells. Cells were seeded in 6-well plates at 1.5×10^5 cells/ml 24 hours prior to treatment with peptides. […] Cells were stimulated with 10 ng/ml LPS for a period of 5, 15, 30 or 60 min and then harvested on ice and lysed in 1% NP-40 containing lysis buffer. Lysates then were denatured using 5× sample buffer with DTT and resolved by SDS-PAGE. The proteins were transferred to PVDF membrane and the membrane was immunoblotted for IκBα (A). Equal protein loading was confirmed by re-probing the blot for β-actin (B). The blots shown are representative of two experiments;
(§1) RAW264.7 cells were seeded at a density of 1×10^5 cells/ml in 6 well plates. […] The protein concentration was determined by monitoring the change in the solution absorbance at 280 nm using a spectrophotometer compared to protein standards. […] Thereafter, the membranes were washed, incubated in appropriate secondary antibody and then developed using standard enhanced chemi-luminescence (ECL) reagents.
To further assay activation of NFκB, the degradation of its inhibitor IκBα, an event required for the translocation of the NFκB into the nucleus, was measured. […]

[2] = test system: JNK; assay: LPS-induced phospho-JNK in RAW264.7 cells, immunoblot; type: cell-based, murine; conditions: peptide 5 μM, 10 ng/ml LPS 5-60 min
Procedure: FIGS. 27A, B and C are immunoblots showing the effect of A464 on LPS-induced appearance of phospho-JNK in murine RAW264.7 cells. Cells were set up as for FIG. 25 above and 5 μM A467 (SEQ ID NO. 23) or A464 (SEQ ID NO. 20) were added to the wells 1 hour before stimulation. Cells were stimulated with 10 ng/ml LPS for a period of 5, 15, 30 or 60 min, then harvested and lysed. Proteins were resolved by SDS-PAGE, and transferred membranes immunoblotted for phospho-JNK (A), total JNK (B) or β-actin (C). The blots shown are representative of two experiments;
as §1
Next, the effect of A464 (SEQ ID No. 20) on MAPK activation was measured by assaying the phosphorylation of p38 and JNK by Western blot. […] As before the protein concentration in the samples was determined by Bradford assay and the accuracy of the loading was confirmed by re-probing the blot for β-actin. […]

RNTISGNIYSARRRRRRRRR [Peptide A467] was tested. Which “effect on LPS-induced IκBα degradation” value [1] did it give?
Its value is “after 15 min of LPS treatment IκBα had completely disappeared”.

What about the “effect on LPS-induced phosphorylation of JNK” value [2] of the same sequence?
Its value is “phosphorylation of both JNK1 and JNK2 isoforms was detected”.
